In article PMC12339387:
These are yes or no findings as the source states them, for the method shown. Binding seen in cells or lysates may run through a third protein. Some entries that bind do so weakly or less than the wild type.

Chains of the proteins cited; added tags and fusions are not shown.
UniProt Q92793: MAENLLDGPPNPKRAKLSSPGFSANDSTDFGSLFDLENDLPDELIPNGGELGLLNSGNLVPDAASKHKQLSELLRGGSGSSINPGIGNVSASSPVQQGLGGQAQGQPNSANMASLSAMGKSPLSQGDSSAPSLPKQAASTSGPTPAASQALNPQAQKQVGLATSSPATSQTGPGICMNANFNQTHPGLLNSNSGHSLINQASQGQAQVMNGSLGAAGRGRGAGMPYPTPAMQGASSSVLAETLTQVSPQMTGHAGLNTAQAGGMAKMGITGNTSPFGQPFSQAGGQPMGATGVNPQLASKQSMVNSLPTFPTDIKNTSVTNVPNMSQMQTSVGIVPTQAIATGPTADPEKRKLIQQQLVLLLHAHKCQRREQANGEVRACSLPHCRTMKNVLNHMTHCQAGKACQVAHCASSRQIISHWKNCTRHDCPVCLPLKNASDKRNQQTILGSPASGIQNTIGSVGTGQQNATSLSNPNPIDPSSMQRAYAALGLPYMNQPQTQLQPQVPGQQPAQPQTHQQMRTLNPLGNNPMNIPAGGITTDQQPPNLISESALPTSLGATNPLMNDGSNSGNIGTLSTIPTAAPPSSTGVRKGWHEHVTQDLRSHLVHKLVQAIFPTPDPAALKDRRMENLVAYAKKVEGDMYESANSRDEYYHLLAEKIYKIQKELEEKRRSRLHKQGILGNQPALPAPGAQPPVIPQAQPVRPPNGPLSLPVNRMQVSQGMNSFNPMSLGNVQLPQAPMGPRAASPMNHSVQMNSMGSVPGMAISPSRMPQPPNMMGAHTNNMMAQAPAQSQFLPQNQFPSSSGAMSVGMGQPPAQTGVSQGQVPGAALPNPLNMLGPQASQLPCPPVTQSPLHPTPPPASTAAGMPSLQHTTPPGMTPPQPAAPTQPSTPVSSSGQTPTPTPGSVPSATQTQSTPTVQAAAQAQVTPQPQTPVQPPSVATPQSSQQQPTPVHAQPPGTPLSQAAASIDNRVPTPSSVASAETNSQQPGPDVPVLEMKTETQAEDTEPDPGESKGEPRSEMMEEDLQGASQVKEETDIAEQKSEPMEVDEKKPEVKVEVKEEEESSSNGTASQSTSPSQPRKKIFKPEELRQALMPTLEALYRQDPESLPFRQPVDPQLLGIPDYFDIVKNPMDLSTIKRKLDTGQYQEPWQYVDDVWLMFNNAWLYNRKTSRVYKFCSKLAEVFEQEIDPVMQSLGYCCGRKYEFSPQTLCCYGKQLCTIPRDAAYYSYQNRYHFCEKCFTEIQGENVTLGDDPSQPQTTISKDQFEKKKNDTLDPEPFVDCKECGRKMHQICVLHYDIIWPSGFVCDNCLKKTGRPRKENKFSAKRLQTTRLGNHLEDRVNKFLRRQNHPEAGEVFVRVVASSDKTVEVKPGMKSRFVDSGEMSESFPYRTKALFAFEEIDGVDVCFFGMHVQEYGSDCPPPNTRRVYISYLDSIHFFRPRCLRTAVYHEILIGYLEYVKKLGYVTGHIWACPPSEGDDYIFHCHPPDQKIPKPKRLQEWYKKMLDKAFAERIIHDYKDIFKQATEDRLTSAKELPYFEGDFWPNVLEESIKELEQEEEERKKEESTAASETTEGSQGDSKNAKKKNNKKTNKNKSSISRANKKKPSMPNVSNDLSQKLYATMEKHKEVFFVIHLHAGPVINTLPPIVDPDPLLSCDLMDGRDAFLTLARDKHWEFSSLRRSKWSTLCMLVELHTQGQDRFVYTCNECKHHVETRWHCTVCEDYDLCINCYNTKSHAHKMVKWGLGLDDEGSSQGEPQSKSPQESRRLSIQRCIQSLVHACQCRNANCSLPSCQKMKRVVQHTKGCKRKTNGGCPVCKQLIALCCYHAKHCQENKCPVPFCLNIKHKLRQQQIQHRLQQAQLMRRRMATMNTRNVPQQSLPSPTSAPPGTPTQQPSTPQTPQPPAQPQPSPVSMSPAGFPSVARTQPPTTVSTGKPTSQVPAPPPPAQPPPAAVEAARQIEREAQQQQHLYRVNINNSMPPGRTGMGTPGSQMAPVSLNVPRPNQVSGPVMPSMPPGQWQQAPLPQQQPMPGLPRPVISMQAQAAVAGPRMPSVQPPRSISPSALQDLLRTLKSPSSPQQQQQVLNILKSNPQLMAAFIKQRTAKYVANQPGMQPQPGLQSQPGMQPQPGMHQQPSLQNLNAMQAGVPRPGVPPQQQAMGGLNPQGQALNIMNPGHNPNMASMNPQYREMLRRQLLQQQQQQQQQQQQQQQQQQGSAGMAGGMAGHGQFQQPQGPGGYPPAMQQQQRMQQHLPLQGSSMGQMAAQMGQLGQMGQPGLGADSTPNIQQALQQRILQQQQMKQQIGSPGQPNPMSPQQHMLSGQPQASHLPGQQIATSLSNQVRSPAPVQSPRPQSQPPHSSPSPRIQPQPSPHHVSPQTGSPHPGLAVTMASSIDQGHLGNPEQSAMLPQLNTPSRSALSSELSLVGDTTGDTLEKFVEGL
UniProt Q09472: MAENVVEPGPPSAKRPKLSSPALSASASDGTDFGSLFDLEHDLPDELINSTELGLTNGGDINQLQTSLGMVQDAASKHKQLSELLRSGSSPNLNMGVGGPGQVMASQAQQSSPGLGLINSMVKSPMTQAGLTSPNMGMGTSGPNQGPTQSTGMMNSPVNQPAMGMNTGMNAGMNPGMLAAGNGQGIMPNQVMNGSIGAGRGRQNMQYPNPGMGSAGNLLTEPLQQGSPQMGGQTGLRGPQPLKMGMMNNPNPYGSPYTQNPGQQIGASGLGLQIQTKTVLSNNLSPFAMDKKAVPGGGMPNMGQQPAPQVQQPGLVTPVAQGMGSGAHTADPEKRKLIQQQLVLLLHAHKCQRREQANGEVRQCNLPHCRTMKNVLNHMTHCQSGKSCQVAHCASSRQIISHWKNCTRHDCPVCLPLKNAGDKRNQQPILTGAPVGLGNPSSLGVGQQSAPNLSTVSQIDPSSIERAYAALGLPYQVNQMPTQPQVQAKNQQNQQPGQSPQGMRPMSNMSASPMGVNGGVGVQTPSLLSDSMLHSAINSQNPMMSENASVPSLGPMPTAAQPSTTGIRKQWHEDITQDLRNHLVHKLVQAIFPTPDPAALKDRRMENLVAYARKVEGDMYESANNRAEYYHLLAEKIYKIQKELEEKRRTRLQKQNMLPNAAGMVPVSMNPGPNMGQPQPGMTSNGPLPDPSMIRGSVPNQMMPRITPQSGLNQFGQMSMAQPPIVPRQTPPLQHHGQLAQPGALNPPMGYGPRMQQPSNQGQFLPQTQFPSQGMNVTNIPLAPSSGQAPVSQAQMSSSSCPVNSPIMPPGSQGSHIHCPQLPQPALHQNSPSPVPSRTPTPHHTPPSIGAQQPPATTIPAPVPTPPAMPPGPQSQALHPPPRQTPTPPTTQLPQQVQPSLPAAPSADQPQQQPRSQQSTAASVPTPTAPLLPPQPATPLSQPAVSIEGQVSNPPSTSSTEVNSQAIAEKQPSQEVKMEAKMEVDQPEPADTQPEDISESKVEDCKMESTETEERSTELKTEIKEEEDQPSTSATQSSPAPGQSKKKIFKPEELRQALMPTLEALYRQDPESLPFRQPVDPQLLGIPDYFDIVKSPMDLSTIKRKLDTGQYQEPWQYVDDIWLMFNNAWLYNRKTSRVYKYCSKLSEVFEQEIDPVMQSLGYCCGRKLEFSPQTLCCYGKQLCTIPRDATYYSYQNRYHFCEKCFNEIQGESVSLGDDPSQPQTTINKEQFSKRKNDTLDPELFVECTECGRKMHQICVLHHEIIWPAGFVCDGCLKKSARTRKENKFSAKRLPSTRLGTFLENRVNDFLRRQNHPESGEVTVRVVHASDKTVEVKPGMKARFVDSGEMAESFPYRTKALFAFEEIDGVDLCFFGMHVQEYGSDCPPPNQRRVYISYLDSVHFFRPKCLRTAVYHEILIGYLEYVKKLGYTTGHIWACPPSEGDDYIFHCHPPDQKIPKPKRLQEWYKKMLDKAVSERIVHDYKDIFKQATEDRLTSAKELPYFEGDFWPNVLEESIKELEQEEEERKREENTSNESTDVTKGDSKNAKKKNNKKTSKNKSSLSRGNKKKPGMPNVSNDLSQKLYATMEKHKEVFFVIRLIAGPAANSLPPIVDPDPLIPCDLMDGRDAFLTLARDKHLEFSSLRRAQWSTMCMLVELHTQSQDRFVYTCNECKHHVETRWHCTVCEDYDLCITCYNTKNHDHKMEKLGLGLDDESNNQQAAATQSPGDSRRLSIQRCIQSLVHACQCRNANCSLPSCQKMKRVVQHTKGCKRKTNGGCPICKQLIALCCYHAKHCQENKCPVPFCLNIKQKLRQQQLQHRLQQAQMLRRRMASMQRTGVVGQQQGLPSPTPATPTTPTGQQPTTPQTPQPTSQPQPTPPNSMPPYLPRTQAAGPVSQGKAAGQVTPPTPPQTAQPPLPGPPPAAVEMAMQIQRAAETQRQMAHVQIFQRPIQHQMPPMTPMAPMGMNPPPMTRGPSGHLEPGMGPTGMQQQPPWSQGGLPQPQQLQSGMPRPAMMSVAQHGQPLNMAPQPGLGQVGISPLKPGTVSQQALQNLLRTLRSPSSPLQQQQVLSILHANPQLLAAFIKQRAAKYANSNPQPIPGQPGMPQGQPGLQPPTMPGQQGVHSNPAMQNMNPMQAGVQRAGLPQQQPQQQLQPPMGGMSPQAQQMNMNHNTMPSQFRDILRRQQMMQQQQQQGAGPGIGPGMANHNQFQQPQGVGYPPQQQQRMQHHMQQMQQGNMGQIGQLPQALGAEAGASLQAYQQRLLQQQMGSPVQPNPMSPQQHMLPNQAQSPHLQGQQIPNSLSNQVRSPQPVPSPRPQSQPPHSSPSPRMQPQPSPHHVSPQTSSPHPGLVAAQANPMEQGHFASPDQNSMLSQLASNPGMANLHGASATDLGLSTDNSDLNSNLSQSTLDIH

Key:
[1] = target: T1, FOXA2 (stably overexpressed in LuNE cells) (human) (UniProt Q9Y261); test: co-IP; Co-IP from the nuclear fraction of LuNE cells (stable LNCaP+FOXA2), western blot (Fig. 7b); the precipitated proteins are not named in the legend
T1 sequence: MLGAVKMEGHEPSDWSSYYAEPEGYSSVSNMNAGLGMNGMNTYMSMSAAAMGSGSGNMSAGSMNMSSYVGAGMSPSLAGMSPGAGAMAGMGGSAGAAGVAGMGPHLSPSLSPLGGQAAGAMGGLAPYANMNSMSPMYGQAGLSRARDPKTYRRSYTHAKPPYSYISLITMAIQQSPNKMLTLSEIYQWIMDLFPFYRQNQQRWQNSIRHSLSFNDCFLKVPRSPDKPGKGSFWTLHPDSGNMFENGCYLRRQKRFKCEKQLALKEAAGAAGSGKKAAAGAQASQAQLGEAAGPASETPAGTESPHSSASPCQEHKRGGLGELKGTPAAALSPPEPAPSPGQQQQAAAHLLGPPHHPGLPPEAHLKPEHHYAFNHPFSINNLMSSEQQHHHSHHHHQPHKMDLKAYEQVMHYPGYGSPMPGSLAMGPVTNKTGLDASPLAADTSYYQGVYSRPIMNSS

[2] = target: T2, NKX2-1 (human (endogenous in NCI-H660 and LuNE)) (UniProt P43699); test: as above
T2 sequence: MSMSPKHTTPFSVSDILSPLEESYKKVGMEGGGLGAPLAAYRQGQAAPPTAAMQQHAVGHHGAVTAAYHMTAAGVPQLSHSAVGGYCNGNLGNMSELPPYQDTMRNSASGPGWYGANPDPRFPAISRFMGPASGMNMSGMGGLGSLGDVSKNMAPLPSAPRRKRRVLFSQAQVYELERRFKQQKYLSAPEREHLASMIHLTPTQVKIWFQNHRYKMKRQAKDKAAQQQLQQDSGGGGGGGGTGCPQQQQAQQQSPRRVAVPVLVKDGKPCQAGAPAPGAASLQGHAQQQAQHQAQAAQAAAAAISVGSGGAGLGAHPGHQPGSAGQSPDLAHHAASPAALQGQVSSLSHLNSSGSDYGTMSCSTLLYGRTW

[3] = target: T2, NKX2-1 (human (endogenous in NCI-H660 and LuNE)); test: co-IP; Co-IP from the nuclear fraction of NCI-H660 cells, western blot (Fig. 7c); the precipitated protein is not named in the legend
[4] = target: T3, FOXA2 (human (endogenous in NCI-H660)), Q9Y261; test: co-IP; FOXA2 Co-IP from the nuclear fraction of NCI-H660 cells, western blot (Fig. 4c); conditions: remark: other sources report otherwise
T3 chain: T1 sequence

[5] = target: T4, NKX2-1 (human (endogenous in NCI-H660 and LuNE)), P43699; test: co-IP; Co-IP from the nuclear fraction of NCI-H660 cells, western blot (Fig. 7c); the precipitated protein is not named in the legend; conditions: remark: other sources report otherwise
T4 chain: T2 sequence

With “CREBBP (CBP) (from UniProt Q92793 1-2442) (enzyme)” the binding [1] was “binds” and the binding [2] was “binds”.

In the case of “EP300 (p300) (from UniProt Q09472 1-2414) (enzyme)”, the binding [3] is reported as “binds” and the binding [2] is reported as “binds”.

B1: NKX2-1, P43699 1-371 (protein)
chain: T2 sequence
In the case of B1, the binding [4] is reported as “binds”.

B2: FOXA2, Q9Y261 1-457 (protein)
chain: T1 sequence
In the case of B2, the binding [5] is reported as “binds”.
